Source: patent US20090060920A1
No constants are given. Whether binding was seen depends on the method and setting. Some entries that bind do so weakly or less than the wild type.

T1: desacyl human ghrelin (human)
T1 sequence (peptide): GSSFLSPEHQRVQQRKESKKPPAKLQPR

T2: 1-8 (cys) desacyl ghrelin (human)
T2 sequence (peptide): GSSFLSPEC

B1: 1-8 (cys) desacyl ghrelin (peptide)
peptide: GSSFLSPEC
B2: Fab 5611 (Fab, V domains shown)
VH: QVQLQQSEAELVRPGSSVKISCKASGYAFSNYWMNWVKQRPGQGLEWIGQIYPGDGDTKYNGKFKGKATLTADKSSSSAYMQLSSLTSEDSAVYFCVITTVVGGDSDVWGAGTTVTVSS
VL: DLVLTQSPASLAVSLGQRATISCRASKSVSTSGYSYMHWYQQKPGQPPKLLIYLASNLESGVPARFSGSGSGTDFTLNIHPVEEEDAATYYCQHSRELPYTFGGGTKLEIKR

Assays:
[1] = target: Fab 5611; test: competition ELISA: peptide preincubated with 10 nM Fab 5611, mixture added to a plate coated with desacyl ghrelin, bound Fab detected with anti-mouse kappa-HRP, A490
[2] = target: T1, desacyl human ghrelin (human); test: competition ELISA, FIG. 1
[3] = target: T1, desacyl human ghrelin (human); test: competition ELISA, FIG. 3
[4] = target: T1, desacyl human ghrelin (human); test: competition ELISA, FIG. 2
[5] = target: T2, 1-8 (cys) desacyl ghrelin (human); test: competition ELISA, FIG. 2

Row | Binder | binding [1] | binding [2] | binding [3] | binding [4] | binding [5]
1 | B1 | binds |  |  |  | 
2 | B2 |  | binds | binds | binds | binds
